The test system of the experiment is BDF1 mice, B16 melanoma ip, median survival T/C. The experiment in a line: NCI In Vivo Anticancer Drug Screen. Data for tumor model B16 Melanoma (intraperitoneal) in B6D2F1 (BDF1) mice. To be noted: T/C endpoint: median survival time, higher T/C = longer survival. In outline: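 Read-out: survival or tumor size, given as treated/control ratio. Controls received vehicle only; animals bore transplantable tumors.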

The mark [1] stands for this setting: dose: 50.0 mg/kg/injection, schedule: Q04DX003 (ip), vehicle: Klucel (hydroxypropylcellulose) (HPC).
[2] abbreviates: dose: 100.0 mg/kg/injection, schedule: Q04DX003 (ip), vehicle: Klucel (hydroxypropylcellulose) (HPC).
[3] abbreviates: dose: 200.0 mg/kg/injection, schedule: Q04DX003 (ip), vehicle: Klucel (hydroxypropylcellulose) (HPC).
The mark [4] stands for this setting: dose: 400.0 mg/kg/injection, schedule: Q04DX003 (ip), vehicle: Klucel (hydroxypropylcellulose) (HPC).
Setting [5] is: dose: 12.5 mg/kg/injection, schedule: Q01DX009 (ip), vehicle: saline.
[6] abbreviates: dose: 25.0 mg/kg/injection, schedule: Q01DX009 (ip), vehicle: saline.
The mark [7] stands for this setting: dose: 50.0 mg/kg/injection, schedule: Q01DX009 (ip), vehicle: saline.
The mark [8] stands for this setting: dose: 100.0 mg/kg/injection, schedule: Q01DX009 (ip), vehicle: saline.
The mark [9] stands for this setting: dose: 200.0 mg/kg/injection, schedule: Q01DX009 (ip), vehicle: saline.
Where [10] appears, read: dose: 400.0 mg/kg/injection, schedule: Q01DX009 (ip), vehicle: saline.
Setting [11] is: dose: 50.0 mg/kg/injection, schedule: Q01DX009 (ip), vehicle: Klucel (hydroxypropylcellulose) (HPC).
Where [12] appears, read: dose: 100.0 mg/kg/injection, schedule: Q01DX009 (ip), vehicle: Klucel (hydroxypropylcellulose) (HPC).
Setting [13] is: dose: 200.0 mg/kg/injection, schedule: Q01DX009 (ip), vehicle: Klucel (hydroxypropylcellulose) (HPC).
Where [14] appears, read: dose: 25.0 mg/kg/injection, schedule: Q01DX009 (ip), vehicle: Klucel (hydroxypropylcellulose) (HPC).
Where [15] appears, read: dose: 6.25 mg/kg/injection, schedule: Q01DX009 (ip), vehicle: Klucel (hydroxypropylcellulose) (HPC).
[16] abbreviates: dose: 12.5 mg/kg/injection, schedule: Q01DX009 (ip), vehicle: Klucel (hydroxypropylcellulose) (HPC).

This note sets out measurements from PubChem BioAssay AID192 (DTP/NCI, 2004).

The list shows only some results of the screen, not a fair sample: it gathers some chemical classes. Not every dose and run of a compound is shown. T/C: endpoint of the treated group in % of that of the vehicle group. Some doses have a count of surviving animals in place of a T/C: the source files T/C as zero there, which appears to mark a toxic dose or a test without result, not a measured value. Some doses without a T/C left all or most animals alive at the check, yet need not have been tolerated: the source hardly ever lists a survival T/C far under the control, and the zero likely stands for such cases as well. Survivors were counted at the toxicity check, usually on the fifth day, unless a day is given; later deaths do not show. Schedule codes are those of the source, read here as Q, the interval in days (D) or hours (H), X, the number of doses. Where survival is the endpoint, the PubChem record calls one and a half times the control and up active, and a quarter to a half above the control has no call in these data; cut-offs in other NCI protocols can differ. Some T/C values carry the count of animals alive at the toxicity check (mostly the fifth day); without a count or a note in brackets, all were alive then. Some entries hold several experiments; the results are listed from low to high.

`NNC(=O)c1cc([N+](=O)[O-])cc([N+](=O)[O-])c1`: the T/C is 106 % of control (dose: 5.0 mg/kg/injection, schedule: Q01DX009 (ip), vehicle: saline with Tween-80); 104 % of control (dose: 10.0 mg/kg/injection, schedule: Q01DX009 (ip), vehicle: saline with Tween-80); 102 % of control (dose: 20.0 mg/kg/injection, schedule: Q01DX009 (ip), vehicle: saline with Tween-80).

`O=[N+]([O-])c1ccc(Nc2ccc(Oc3ccc([N+](=O)[O-])cc3[N+](=O)[O-])cc2)c([N+](=O)[O-])c1`: the T/C runs as follows: (dose: 12.5 mg/kg/injection, schedule: Q04DX003 (ip), vehicle: Klucel (hydroxypropylcellulose) (HPC)) 90 % of control; (dose: 25.0 mg/kg/injection, schedule: Q04DX003 (ip), vehicle: Klucel (hydroxypropylcellulose) (HPC)) 93 % of control [9 of 10 alive]; under setting [1], 100 % of control. The survivor count runs as follows: under setting [2], 10 of 10; under setting [3], 9 of 10; under setting [4], 10 of 10.

With `O=NN1CCN/C1=N\[N+](=O)[O-]`, the T/C was 110 % of control (dose: 50.0 mg/kg/injection, schedule: Q01DX017 (ip), vehicle: saline with Tween-80); 118 % of control (dose: 50.0 mg/kg/injection, schedule: Q02DX009 (ip), vehicle: Klucel (hydroxypropylcellulose) (HPC)); 110 and 115 % of control (dose: 50.0 mg/kg/injection, schedule: Q02DX009 (ip), vehicle: saline with Tween-80); 118 % of control (dose: 100.0 mg/kg/injection, schedule: Q01DX017 (ip), vehicle: saline with Tween-80); 123 % of control [9 of 10 alive] (dose: 100.0 mg/kg/injection, schedule: Q02DX009 (ip), vehicle: Klucel (hydroxypropylcellulose) (HPC)); 116 and 118 % of control (dose: 100.0 mg/kg/injection, schedule: Q02DX009 (ip), vehicle: saline with Tween-80). Also, the T/C is, setting by setting: (dose: 200.0 mg/kg/injection, schedule: Q01DX017 (ip), vehicle: saline with Tween-80) 122 % of control [9 of 10 alive]; (dose: 200.0 mg/kg/injection, schedule: Q02DX009 (ip), vehicle: Klucel (hydroxypropylcellulose) (HPC)) 139 % of control; (dose: 200.0 mg/kg/injection, schedule: Q02DX009 (ip), vehicle: saline with Tween-80) 122 [9 of 10 alive] and 125 % of control; (dose: 400.0 mg/kg/injection, schedule: Q01DX017 (ip), vehicle: saline with Tween-80) 139 % of control; (dose: 400.0 mg/kg/injection, schedule: Q02DX009 (ip), vehicle: saline with Tween-80) 96 and 139 % of control. Moreover, the survivor count (dose: 400.0 mg/kg/injection, schedule: Q02DX009 (ip), vehicle: Klucel (hydroxypropylcellulose) (HPC)) is listed as 7 of 10.

Turning to `CC1(C)CN1P(=O)(Nc1ncccn1)N1CC1(C)C` (configuration not stated), the T/C under setting [5] was 123 % of control; the T/C under setting [6] was 120 % of control; the T/C under setting [7] was 87 % of control; the T/C under setting [8] was 180 % of control; the T/C under setting [9] is 233 % of control. Besides, the survivor count under setting [10] was 10 of 10.

As to `FC(Cl)C(F)(F)Sc1ccc(Cl)cc1` (configuration not stated), the T/C under setting [11] was 101 % of control, the T/C under setting [12] is 105 % of control [9 of 10 alive] and the T/C under setting [13] was 99 % of control [9 of 10 alive].

As to `CCN(CC)CCOC(=O)C(O)(c1ccccc1)c1cc(C)cc(C)c1C` (configuration not stated), the T/C under setting [14] was 103 % of control.

Take `O=P1(N(CCCl)CCCl)OCCCN1CCCl` (configuration not stated): the T/C by setting is: under setting [5], 104 % of control; under setting [6], 133 % of control; under setting [7], 147 % of control; under setting [8], 88 % of control. For the same molecule, the survivor count under setting [9] was 6 of 6.

Regarding `CCCCOc1ccc(N(CCCl)CCCl)cc1`, the T/C (dose: 3.12 mg/kg/injection, schedule: Q01DX009 (ip), vehicle: Klucel (hydroxypropylcellulose) (HPC)) was 122 % of control; the T/C under setting [15] is 117 % of control; the T/C under setting [16] was 139 % of control; the T/C under setting [14] was 148 % of control; the T/C under setting [11] was 123 % of control. Also, the survivor count under setting [12] is on record as 10 of 10.

Take `FC1(F)SC2C3CCC(C3)C2C1(F)Cl` (configuration not stated): the T/C was 91 % of control [9 of 10 alive] (dose: 0.62 mg/kg/injection, schedule: Q01DX009 (ip), vehicle: Klucel (hydroxypropylcellulose) (HPC)); 100 % of control (dose: 1.25 mg/kg/injection, schedule: Q01DX009 (ip), vehicle: Klucel (hydroxypropylcellulose) (HPC)); 99 and 103 % of control [9 of 10 alive] (dose: 2.5 mg/kg/injection, schedule: Q01DX009 (ip), vehicle: Klucel (hydroxypropylcellulose) (HPC)). The survivor count (dose: 5.0 mg/kg/injection, schedule: Q01DX009 (ip), vehicle: Klucel (hydroxypropylcellulose) (HPC)) is reported as 2 of 10 and the survivor count (dose: 10.0 mg/kg/injection, schedule: Q01DX009 (ip), vehicle: Klucel (hydroxypropylcellulose) (HPC)) is reported as 4 of 10.

Turning to `CCCCC(CC)CO[P+](=O)OCC(CC)CCCC` (configuration not stated), the T/C by setting is: (dose: 12.5 mg/kg/injection, schedule: Q01DX009 (ip), vehicle: saline with Tween-80) 104 % of control; (dose: 12.5 mg/kg/injection, schedule: Q04DX003 (ip), vehicle: saline with Tween-80) 97 % of control; (dose: 25.0 mg/kg/injection, schedule: Q01DX009 (ip), vehicle: saline with Tween-80) 88 % of control; (dose: 25.0 mg/kg/injection, schedule: Q04DX003 (ip), vehicle: saline with Tween-80) 96 % of control; (dose: 50.0 mg/kg/injection, schedule: Q01DX009 (ip), vehicle: saline with Tween-80) 93 % of control; (dose: 50.0 mg/kg/injection, schedule: Q04DX003 (ip), vehicle: saline with Tween-80) 101 % of control.

Consider `O=C1NC(=O)C(c2cccc(N(CCCl)CCCl)c2)N1` (configuration not stated), for which the T/C was 101 % of control under setting [15]; 101 % of control under setting [16]; 104 % of control under setting [14]; 101 % of control under setting [11]; 104 % of control under setting [12].

Turning to `Cc1ccc(N(CCCl)CCCl)cc1C`, the T/C under setting [15] was 119 % of control, the T/C under setting [16] was 136 % of control, the T/C under setting [14] is 140 % of control and the T/C under setting [11] was 167 % of control. Also, the survivor count runs as follows: under setting [12], 10 of 10; under setting [13], 8 of 10.

On to `Cc1ccc(Sc2ccc([N+](=O)[O-])cc2[N+](=O)[O-])c([N+](=O)[O-])c1`, for which the T/C under setting [7] was 100 % of control, the T/C under setting [8] is 100 % of control, the T/C under setting [9] is 102 % of control and the T/C under setting [10] was 110 % of control.

Take `F[As-](F)(F)(F)(F)F.c1ccc([As+](c2ccccc2)(c2ccccc2)c2ccccc2)cc1`: the T/C was 92 % of control [9 of 10 alive] under setting [1], 127 % of control under setting [2], 123 % of control [9 of 10 alive] under setting [3] and 123 % of control [8 of 10 alive] under setting [4].
